Results: US20050142626A1, “Diagnostic methods for asthma” (priority 1999, published 2005)

Tests used:
Assay type in all cases: in vivo, Human
[1] = Plasma 3-bromotyrosine in acute asthma exacerbation and following steroid therapy; settings: i.v. then oral steroids over 2 weeks
[2] = 3-Bromotyrosine in bronchoalveolar lavage of asthmatic vs non-asthmatic intensive care patients (GC/MS); settings: BAL protein, FIG. 4
[3] = 3-Bromotyrosine and 3-chlorotyrosine in bronchoalveolar lavage after segmental antigen challenge; settings: BAL
[4] = 48 h after ragweed pollen challenge

With `N[C@@H](Cc1ccc(O)c(Br)c1)C(=O)O` (single isomer, unassigned) [3-bromotyrosine] the “content of 3-bromotyrosine in plasma following steroid therapy” value [1] was “decreased significantly”, the “levels of 3-bromotyrosine in BAL of asthmatic subjects relative to non-asthmatic individuals” value [2] was “over 100 fold” and the “level following antigen challenge in asthmatic individuals” value [3, 4] was “increased significantly”. For the same molecule, the “level following antigen challenge in non-asthmatic subjects” value [3, 4] was “no increase” and the “increase in baseline levels in mild asthmatic subjects” value ([3]; baseline, asthmatic vs non-asthmatic, FIG. 5) was 2 fold.
